The values that follow come from paper PMC9484696.

Sequences of proteins named here, by UniProt entry; tags and fusion partners are left off. Residues count along the entry.
UniProt P42081, residues 24-247: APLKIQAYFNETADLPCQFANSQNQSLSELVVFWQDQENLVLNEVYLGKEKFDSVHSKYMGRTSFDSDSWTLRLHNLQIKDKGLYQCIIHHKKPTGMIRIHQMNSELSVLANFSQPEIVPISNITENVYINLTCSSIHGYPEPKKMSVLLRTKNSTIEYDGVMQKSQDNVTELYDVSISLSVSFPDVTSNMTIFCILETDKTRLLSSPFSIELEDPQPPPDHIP
UniProt Q9NNX6, residues 59-404: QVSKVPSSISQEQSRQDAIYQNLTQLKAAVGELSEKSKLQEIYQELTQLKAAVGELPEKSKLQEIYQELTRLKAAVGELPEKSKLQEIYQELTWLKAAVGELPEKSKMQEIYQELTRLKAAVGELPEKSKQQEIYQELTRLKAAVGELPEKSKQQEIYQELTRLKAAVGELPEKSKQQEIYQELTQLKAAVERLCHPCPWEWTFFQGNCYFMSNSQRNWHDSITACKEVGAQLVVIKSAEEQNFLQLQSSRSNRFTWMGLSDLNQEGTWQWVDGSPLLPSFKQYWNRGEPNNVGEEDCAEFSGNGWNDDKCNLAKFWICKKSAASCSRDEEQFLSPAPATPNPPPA
UniProt O00206, residues 24-631: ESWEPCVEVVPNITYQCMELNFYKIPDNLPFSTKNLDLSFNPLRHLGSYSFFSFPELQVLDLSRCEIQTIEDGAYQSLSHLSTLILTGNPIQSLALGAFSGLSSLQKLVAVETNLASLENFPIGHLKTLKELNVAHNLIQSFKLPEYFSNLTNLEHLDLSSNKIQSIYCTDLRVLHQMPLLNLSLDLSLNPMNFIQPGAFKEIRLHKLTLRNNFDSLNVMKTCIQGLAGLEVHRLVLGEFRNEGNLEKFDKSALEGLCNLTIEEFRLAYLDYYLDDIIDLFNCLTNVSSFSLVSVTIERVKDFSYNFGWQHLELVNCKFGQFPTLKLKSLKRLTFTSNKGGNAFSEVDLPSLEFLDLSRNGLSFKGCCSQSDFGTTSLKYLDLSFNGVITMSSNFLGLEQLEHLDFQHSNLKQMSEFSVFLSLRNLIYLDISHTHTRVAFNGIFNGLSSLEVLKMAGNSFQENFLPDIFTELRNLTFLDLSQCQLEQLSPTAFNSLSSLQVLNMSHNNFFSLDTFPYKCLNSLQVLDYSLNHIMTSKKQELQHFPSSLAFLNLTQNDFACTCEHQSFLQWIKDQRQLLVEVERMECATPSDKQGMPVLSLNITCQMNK

Assay [1] deals with human CD86 receptor bait protein with Fc-tag (human) (UniProt P42081). Description: affinity purification with mass spectrometry; Fc-tagged receptor baits on protein A beads (TLR4 with 6XHis on nickel beads) incubated with precleared Ae. aegypti salivary gland extract at 4°C for 1 h, washed with PBS; in a second set-up the extract met the receptor first and then the beads; bands cut from SDS-PAGE and identified by mass spectrometry; only the target purified.

Assay [2] concerns the target human DC-SIGN receptor bait protein with Fc-tag (human) (UniProt Q9NNX6). The assay is described as above.
Assay [3] has the same target. Put plainly: affinity purification with mass spectrom; only the target purified.
Assay [4] concerns the target T1, human CD14 receptor bait protein with Fc-tag (human) (UniProt P08571).
T1 sequence: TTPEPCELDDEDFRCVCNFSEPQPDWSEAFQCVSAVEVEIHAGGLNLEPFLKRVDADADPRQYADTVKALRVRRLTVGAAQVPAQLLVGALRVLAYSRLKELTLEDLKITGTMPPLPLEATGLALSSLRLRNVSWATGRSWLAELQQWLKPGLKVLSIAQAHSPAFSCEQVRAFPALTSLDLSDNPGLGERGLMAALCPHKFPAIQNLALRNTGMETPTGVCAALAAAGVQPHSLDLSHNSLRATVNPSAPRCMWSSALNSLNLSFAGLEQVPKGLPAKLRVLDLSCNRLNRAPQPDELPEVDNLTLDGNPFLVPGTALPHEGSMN
Put plainly: affinity purification with mass spectrometry; Fc-tagged receptor baits on protein A beads (TLR4 with 6XHis on nickel beads) incubated with precleared Ae. aegypti salivary gland extract at 4°C for 1 h, washed with PBS; in a second set-up the extract met the receptor first and then the beads; bands cut from SDS-PAGE and identified by mass spectrometry; only the target purified.

Assay [5] addresses human TLR4 receptor bait protein with 6XHis-tag (human) (UniProt O00206). The assay is described as above.

These are yes or no findings as the source states them, for the method shown. In cells and extracts the contact can be indirect. Here binding means that the protein was enriched with, or labelled near, the bait; the list need not be complete. For some assays here: Sequences can lack the tags named with a protein.

B1: Long-form D7 protein 2 (AAEL006424), from salivary gland extract (protein, UniProt P18153 18-321)
chain: STGPFDPEEMLFTFTRCMEDNLEDGPNRLPMLAKWKEWINEPVDSPATQCFGKCVLVRTGLYDPVAQKFDASVIQEQFKAYPSLGEKSKVEAYANAVQQLPSTNNDCAAVFKAYDPVHKAHKDTSKNLFHGNKELTKGLYEKLGKDIRQKKQSYFEFCENKYYPAGSDKRQQLCKIRQYTVLDDALFKEHTDCVMKGIRYITKNNELDAEEVKRDFMQVNKDTKALEKVLNDCKSKEPSNAGEKSWHYYKCLVESSVKDDFKEAFDYREVRSQIYAFNLPKKQVYSKPAVQSQVMEIDGKQCPQ
Take B1: the binding result in assay [1] and in assay [2] was “binds” in each case.

B2: Ae. aegypti venom allergen-1 (AaVA-1, AAEL000793), from salivary gland extract (protein, UniProt A0A1S4EWW7 22-255)
chain: NYCDQSLCRRGPHVACNAPTQFGSACGQEPKFVKMDARMKNLLLKKHNELRAEIACGKHGFPQAARMPTLVWDDELAHIASFNARKCIFAHDKCRNTREFKFAGQNLAITAFAGYNFQAADRAENFTQEWFNEHKDCPKSYVDSYPMSHSGPQIGHFTQMVNDRAWKMGCSMVHYKNGRVIKYYLVCNYSMTNMIEEPIYTRGSAGSKCQTGQNPQYRGLCSPREKVRSESYRG
B2: the binding result in assay [3] is “binds”.

B3: Long-form D7 protein 1 (AAEL006417), from salivary gland extract (protein, UniProt Q0IF93 22-332)
chain: APLWDAKDPEQLRFITSRCMEDWYPKAKNPKAALQNWLGWKLEPSDDQATQCYTKCVLEKIGFYEPGEKRFKGVRVMQQWETFHKYLNADREKVHDLTSTFDFIPPLKSSSCSEVFEAFKKVNGKHSETIRAILFGKGESSKKYYQEKGVKIKQKEQSLFMHCEALNYPKGSPQRKDLCGIRKYQMGSGIVFERHMECIFKGLRYMTSKNELDVDEIARDFIVVKKKPDAMKAMMKTCKANLKEKNPGKIAVHYYKCLMNDSKVTNDFKEAFDYREVRSKDYFAALTGKLKPYSRSDVRKQVDDIDKIQCS
As to B3, the binding result in assay [4] is recorded as “binds”.

B4: Apyrase (AAEL006347), from salivary gland extract (enzyme, UniProt P50635 25-562)
chain: TDNMPVNKDVSKLFPLTLIHINDLHARFEETNMKSNVCTQKDQCIAGIARVYQKIKDLLKEYESKNPIYLNAGDNFQGTLWYNLLRWNVTADFIKKLKPAAMTLGNHEFDHTPKGLAPYLAELNKEGIPTIVANLVMNNDPDLKSSKIPKSIKLTVGKRKIGIIGVLYDKTHEIAQTGKVTLSNAVEAVRREAAALKKDNIDIIVVLSHCSYEEDKKIAAEAGDDIDVIVGAHSHSFLYSPDSKQPHDPKDKVEGPYPTLVESKNKRKIPIVQAKSFGKYVGRLTLYFDEEGEVKNWEGYPVFIDHKVQQDPQILKDLVPWRAKVEAIGSTVVGETMIELDRDSCRDQECTLGVLYADGFADQYTNDTFRPFAIIQAGNFRNPIKVGKITNGDIIEAAPFGSTADLIRLKGADIWDVAEHSFALDDEGRTNCLQVSGLRIVIDISKPVRSRVKKIEVMDYTNPKSDKLKPLDKEAEYYIVVPSYLADGKDGFSAMKRATARRTGPLDSDVFKNYVEKIKKVDNLKLGRVIVCKGSKCT
For B4, the binding result in assay [4], in assay [1], in assay [5] and in assay [2] was “binds” in each case.
